According to patent US20160376356A1:
Positions count from the first letter of the chain named. No constants are given. Whether binding was seen depends on the method and setting. Some results given as binding are weak or reduced against the parent protein; the word gives no strength. Values belong to the binder of their own block, whether it stands above or below them.

Protein sequences, listed by entry. Tags and fused reporters are not part of them. Lines headed by an entry give the natural chain unless they say otherwise; changes in a name come on top. Chains listed by the source or under a name are the forms on record and can include a tag or linker.
ED-A isoform of fibronectin (A-FN) in tumour tissue sections (P02751, form named): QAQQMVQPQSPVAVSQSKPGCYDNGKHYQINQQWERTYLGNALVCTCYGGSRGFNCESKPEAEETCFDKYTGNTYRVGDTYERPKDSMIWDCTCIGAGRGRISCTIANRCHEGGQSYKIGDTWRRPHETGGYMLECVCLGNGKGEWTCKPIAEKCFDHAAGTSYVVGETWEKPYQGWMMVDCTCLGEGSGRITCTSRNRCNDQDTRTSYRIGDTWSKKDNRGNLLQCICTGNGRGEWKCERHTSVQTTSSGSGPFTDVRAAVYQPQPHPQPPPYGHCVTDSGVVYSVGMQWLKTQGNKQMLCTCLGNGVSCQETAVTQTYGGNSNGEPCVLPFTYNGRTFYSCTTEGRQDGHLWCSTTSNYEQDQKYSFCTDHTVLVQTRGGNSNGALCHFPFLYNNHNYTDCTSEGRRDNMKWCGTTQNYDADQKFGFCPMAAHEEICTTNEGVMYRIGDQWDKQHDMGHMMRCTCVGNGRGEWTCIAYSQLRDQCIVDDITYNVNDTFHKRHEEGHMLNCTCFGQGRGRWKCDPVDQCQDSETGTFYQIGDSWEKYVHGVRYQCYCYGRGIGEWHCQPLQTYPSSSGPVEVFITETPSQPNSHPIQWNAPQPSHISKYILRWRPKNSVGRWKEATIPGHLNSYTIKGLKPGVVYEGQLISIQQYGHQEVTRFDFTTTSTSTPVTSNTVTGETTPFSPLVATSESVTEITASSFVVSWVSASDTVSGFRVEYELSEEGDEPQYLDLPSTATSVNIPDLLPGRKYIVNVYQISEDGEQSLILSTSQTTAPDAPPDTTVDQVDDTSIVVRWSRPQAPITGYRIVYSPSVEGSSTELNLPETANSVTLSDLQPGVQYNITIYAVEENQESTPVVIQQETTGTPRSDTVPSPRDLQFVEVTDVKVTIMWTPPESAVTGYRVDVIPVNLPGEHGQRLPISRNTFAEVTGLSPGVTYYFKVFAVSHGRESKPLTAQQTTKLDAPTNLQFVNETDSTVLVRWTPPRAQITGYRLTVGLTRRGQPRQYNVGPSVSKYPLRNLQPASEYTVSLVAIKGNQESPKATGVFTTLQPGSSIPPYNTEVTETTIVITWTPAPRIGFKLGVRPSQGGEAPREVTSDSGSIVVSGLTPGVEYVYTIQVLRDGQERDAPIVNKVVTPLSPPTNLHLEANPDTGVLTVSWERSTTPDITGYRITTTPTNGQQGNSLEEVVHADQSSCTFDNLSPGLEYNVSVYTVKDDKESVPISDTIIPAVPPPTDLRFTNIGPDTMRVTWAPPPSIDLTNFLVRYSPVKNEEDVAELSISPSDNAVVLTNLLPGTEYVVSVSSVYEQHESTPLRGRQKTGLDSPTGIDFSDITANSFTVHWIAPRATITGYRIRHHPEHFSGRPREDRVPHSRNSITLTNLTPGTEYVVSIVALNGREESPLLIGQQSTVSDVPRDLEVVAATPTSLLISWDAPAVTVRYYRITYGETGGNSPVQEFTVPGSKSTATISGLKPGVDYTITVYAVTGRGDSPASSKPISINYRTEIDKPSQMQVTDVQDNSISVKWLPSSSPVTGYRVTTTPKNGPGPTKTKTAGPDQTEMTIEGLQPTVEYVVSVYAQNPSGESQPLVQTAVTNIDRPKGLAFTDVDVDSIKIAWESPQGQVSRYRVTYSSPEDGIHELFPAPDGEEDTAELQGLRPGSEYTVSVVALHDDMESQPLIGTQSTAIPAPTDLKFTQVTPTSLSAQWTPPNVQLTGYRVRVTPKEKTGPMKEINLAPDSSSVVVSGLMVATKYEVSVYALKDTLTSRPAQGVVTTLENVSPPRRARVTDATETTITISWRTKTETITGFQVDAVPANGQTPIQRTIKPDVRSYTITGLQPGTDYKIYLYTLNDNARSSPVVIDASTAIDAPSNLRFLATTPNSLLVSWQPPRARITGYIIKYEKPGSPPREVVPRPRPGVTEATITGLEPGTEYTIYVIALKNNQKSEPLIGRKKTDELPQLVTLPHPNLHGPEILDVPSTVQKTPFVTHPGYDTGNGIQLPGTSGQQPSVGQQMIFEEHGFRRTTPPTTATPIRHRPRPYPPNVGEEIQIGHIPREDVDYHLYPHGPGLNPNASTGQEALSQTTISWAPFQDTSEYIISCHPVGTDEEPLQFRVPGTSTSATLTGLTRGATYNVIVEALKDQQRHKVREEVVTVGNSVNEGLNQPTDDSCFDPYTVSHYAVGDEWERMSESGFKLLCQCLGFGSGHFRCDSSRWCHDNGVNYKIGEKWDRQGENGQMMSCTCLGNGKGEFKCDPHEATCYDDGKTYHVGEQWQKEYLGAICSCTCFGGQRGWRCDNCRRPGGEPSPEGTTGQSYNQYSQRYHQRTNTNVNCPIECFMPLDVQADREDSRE

Columns and labels:
[1] = target: ED-A isoform of fibronectin (A-FN) in tumour tissue sections (human) (UniProt P02751); experiment: immunohistochemistry, myc-tagged scFv on sections of primary human Ramos lymphoma
[2] = target: ED-A isoform of fibronectin (A-FN) in tumour tissue sections (human) (UniProt P02751); experiment: immunohistochemistry, myc-tagged scFv on sections of small cell and non-small cell lung cancers

binding [1]: binds
B1: anti-ED-A antibody F8 (scFv)
scFv: EVQLVESGGGLVQPGGSLRLSCAASGFTFSLFTMSWVRQAPGKGLEWVSAISGSGGSTYYADSVKGRFTISRDNSKNTLYLQMNSLRAEDTAVYYCAKSTHLYLFDYWGQGTLVTVSSGGGGSGGGGSGGGGSGGGGSEIVLTQSPGTLSLSPGEKATLSCRASQSVSMPFLAWYQQKPGQAPRLLIYGASSRATGIPDRFSGSGSGTDFTLTISRLEPEDFAVYYCQQMRGRPPTFGQGTKVEIKAAAEQKLISEEDLNGAA

binding [2]: binds
B2: anti-ED-A antibody D5 (scFv)
scFv: B1 scFv with L31V, F32M, T33K, M169N, P170A
